Experimental data taken from patent publication EP0305387B2, “INSULINOTROPIC HORMONE” (priority 1986, dated 1996).
At least one peptide structure holds a part that was inferred or is arguable (an end, a ring closure or a residue).

Tests used:
[1] = system: insulin mRNA; assay: Insulin mRNA levels in RIN-38 insulinoma cells (Northern hybridization, densitometry); type: cell-based, rat; conditions: peptide 10^-7M, six hours
[2] = system: actin mRNA; assay: Actin mRNA levels in RIN-38 insulinoma cells (Northern hybridization, densitometry); type: cell-based, rat; conditions: peptide 10^-7M, six hours, RIN-38 cells
[3] = system: angiotensinogen mRNA; assay: Angiotensinogen mRNA levels in RIN-38 insulinoma cells (Northern hybridization, densitometry); type: cell-based, rat; conditions: peptide 10^-7M, six hours, RIN-38 cells
[4] = system: rat pancreas; assay: Perfused rat pancreas, insulin levels by radioimmunoassay; type: in vivo
[5] = system: RINS-38 insulinoma cells; assay: cAMP levels in insulinoma cells; type: cell-based, rat; conditions: for pMOLES OF cAMP PRODUCED Expt I / pMOLES OF cAMP PRODUCED Expt II: 10 minutes, 20 ul assayed
[6] = system: INSULIN GENE; assay: Insulin gene transcription in RIN-38 cells (nuclear run on assay); type: cell-based, rat; conditions: 10^-7M
[7] = system: ACTIN GENE; assay: Actin gene transcription in RIN-38 cells (nuclear run on assay); type: cell-based, rat; conditions: 10^-7M

CC[C@H](C)[C@H](NC(=O)[C@H](Cc1ccccc1)NC(=O)[C@H](CCC(=O)O)NC(=O)[C@H](CCCCN)NC(=O)[C@H](C)NC(=O)[C@H](C)NC(=O)[C@H](CCC(N)=O)NC(=O)CNC(=O)[C@H](CCC(=O)O)NC(=O)[C@H](CC(C)C)NC(=O)[C@H](Cc1ccc(O)cc1)NC(=O)[C@H](CO)NC(=O)[C@H](CO)NC(=O)[C@@H](NC(=O)[C@H](CC(=O)O)NC(=O)[C@H](CO)NC(=O)[C@@H](NC(=O)[C@H](Cc1ccccc1)NC(=O)[C@@H](NC(=O)CNC(=O)[C@H](CCC(=O)O)NC(=O)[C@H](C)NC(=O)[C@@H](N)Cc1c[nH]cn1)[C@@H](C)O)[C@@H](C)O)C(C)C)C(=O)N[C@@H](C)C(=O)N[C@@H](Cc1c[nH]c2ccccc12)C(=O)N[C@@H](CC(C)C)C(=O)N[C@H](C(=O)N[C@@H](CCCCN)C(=O)NCC(=O)N[C@@H](CCCNC(=N)N)C(=O)NCC(=O)O)C(C)C [GLP-1 (7-37)]
MESSENGER RNAs INSULIN ([1]; RIN-38 cells): 4.23±0.74 arbitrary densitometric units
insulin gene expression relative to the level found in control (untreated) cells ([1]; microdensitometer): more than 3 times
MESSENGER RNAs ACTIN [2]: 0.82±0.08 arbitrary densitometric units
MESSENGER RNAs ANGIOTENSINOGEN [3]: 2.78±0.46 arbitrary densitometric units
increase in serum insulin levels ([4]; perfused into rat pancreas at 5 x 10^-8M): 21 fold
potency in stimulating insulin expression in vivo relative to GLP-1 (1-37) ([4]; perfused rat pancreas): more than 1,000 fold
cAMP levels ([5]; even at a concentration of 10^-11M): capable of stimulating cAMP levels
pMOLES OF cAMP PRODUCED Expt I ([5]; peptide 10^-6 M): 400 pMOLES
pMOLES OF cAMP PRODUCED Expt II ([5]; peptide 10^-6 M): 170 pMOLES
pMOLES OF cAMP PRODUCED Expt I ([5]; peptide 10^-7 M): 370 pMOLES
pMOLES OF cAMP PRODUCED Expt II ([5]; peptide 10^-7 M): 120 pMOLES
pMOLES OF cAMP PRODUCED Expt I ([5]; peptide 10^-8 M): 494 pMOLES
pMOLES OF cAMP PRODUCED Expt II ([5]; peptide 10^-8 M): 160 pMOLES
pMOLES OF cAMP PRODUCED Expt I ([5]; peptide 10^-9 M): 515 pMOLES
pMOLES OF cAMP PRODUCED Expt II ([5]; peptide 10^-9 M): 100 pMOLES
pMOLES OF cAMP PRODUCED Expt I ([5]; peptide 10^-10 M): 253 pMOLES
pMOLES OF cAMP PRODUCED Expt II ([5]; peptide 10^-10 M): 90 pMOLES
pMOLES OF cAMP PRODUCED Expt I ([5]; peptide 10^-11 M): 533 pMOLES
pMOLES OF cAMP PRODUCED Expt II ([5]; peptide 10^-11 M): 90 pMOLES
TRANSCRIPTION OF THE INSULIN GENE ([6]; 0 hrs): 17.4 ppm/kb of cDNA insert
TRANSCRIPTION OF THE INSULIN GENE ([6]; 1 hr): 76.2 ppm/kb of cDNA insert
TRANSCRIPTION OF THE INSULIN GENE ([6]; 4 hrs): 9.0 ppm/kb of cDNA insert
rate of insulin gene transcription ([6]; up to 4 hours): increases the rate of insulin gene transcription
TRANSCRIPTION OF THE ACTIN GENE ([7]; 0 hrs): 34.1 ppm/kb of cDNA insert
TRANSCRIPTION OF THE ACTIN GENE ([7]; 1 hr): 29.9 ppm/kb of cDNA insert
TRANSCRIPTION OF THE ACTIN GENE ([7]; 4 hrs): 25.0 ppm/kb of cDNA insert
rate of actin gene expression ([7]; up to 4 hours): no detectable effect
